{"source": "patent US8623861B2", "about": "“Method of treating demyelination diseases” (priority 2006, dated 2014)", "origin": "cited, not measured here", "key": {"PC 12 cell": {"test_system": "PC 12 cell", "conditions": "serum withdrawal or addition of hydrogen peroxide, β-amyloid peptide or MPP+; cited from earlier work"}, "rat retrosplenial cortex": {"test_system": "rat retrosplenial cortex", "conditions": "pre-treatment, cited from earlier work"}, "[1]": {"conditions": "Fujimura et al., 2000, Hashimoto et al."}}, "note": "At least one structure is not confirmed: it was looked up by name or label, or the drawing left a doubt.", "data": [{"smiles": "CN1CCN(C2=Nc3cc(Cl)ccc3Nc3ccccc32)CC1", "note": "[clozapine]", "values": [{"measurement": "PC 12 cell death", "setting": "PC 12 cell", "value": "reduce the PC 12 cell death"}, {"measurement": "neurotoxicity produced by dizocilpine (MK-801)", "setting": "rat retrosplenial cortex; Farber et al., 1993, 1996", "value": "significantly decreased"}, {"measurement": "expression of Fos-like protein induced by dizocilpine", "setting": "rat retrosplenial cortex; [1]", "value": "significantly attenuated the expression of Fos-like protein"}, {"measurement": "neuronal vacuolization induced by dizocilpine", "setting": "rat retrosplenial cortex; [1]", "value": "blocked the neuronal vacuolization"}]}]}
